Record: PubChem BioAssay AID1224826 (NIAID, 2016)
Screen: 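Regulators of Tlr4 signalling leading to Tnf-alpha expression in macrophages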 (primary screen). Cells: RAW264.7 G9 macrophages from mouse bearing reporters for p65 (GFP) and the Tnf promoter (mCherry). Reagent: siRNA pool against mouse genes, 100 nM. Duration: 16 h of LPS stimulation, after 2 days of siRNA transfection. Challenge: bacterial lipopolysaccharide (Salmonella minnesota R595), 10 ng/ml. Measured: 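Imaged Tnf reporter mCherry in nuclei, minus background, normalised per plate to the median and expressed as robust z-scores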. Direction: Tnf reporter robust z-score: higher = stronger Tnf promoter reporter signal after LPS. Call rule: 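Called active when robust z-score is at most -1.3, matching the median of the Tlr4 knock-down control, or over 3; control wells and wells with under 50 cells never active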. Meaning of the calls: active = Tnf reporter clearly lowered or raised; inactive = no clear change in Tnf reporter.
This is one part, drawn at random, of about 17,000 reagents tested. About 1,110 of them (6.6%) were called active. 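Active means lowered or raised reporter signal; replicate intensities are raw and not normalised per plate.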 Not all columns of the deposit are shown.

After knock-down of Arrdc1, the record shows Tnf reporter robust z-score -0.87; fewer than 50 cells in well enough cells in well; inactive.
With knock-down of Or2at1, the screen gave fewer than 50 cells in well fewer than 50 cells per well; well left out of calls; inactive.
For Evl, the entry reads Tnf reporter robust z-score -1.49; fewer than 50 cells in well enough cells in well; active.
With knock-down of Havcr2, the record shows Tnf reporter robust z-score 0.56; fewer than 50 cells in well enough cells in well; inactive.
Depletion of Ctsa came out at: Tnf reporter robust z-score 1.19; fewer than 50 cells in well enough cells in well; inactive.
Kdm4b gave Tnf reporter robust z-score -1.11; fewer than 50 cells in well enough cells in well; inactive.
With knock-down of Zfp608, the screen gave Tnf reporter robust z-score 2.83; fewer than 50 cells in well enough cells in well; inactive.
Spaar scored Tnf reporter robust z-score 1.19; fewer than 50 cells in well enough cells in well; inactive.
For Pcdha7, the values are Tnf reporter robust z-score -0.62; fewer than 50 cells in well enough cells in well; inactive.
Silencing of Cav1 resulted in: Tnf reporter robust z-score -1.5; fewer than 50 cells in well enough cells in well; active.
With knock-down of Ccdc68 the results were Tnf reporter robust z-score 0.11; fewer than 50 cells in well enough cells in well; inactive.
Depletion of Or12e1 came out at: Tnf reporter robust z-score 0.18; fewer than 50 cells in well enough cells in well; inactive.

2 consecutive reagents already listed:
Cav1 → Tnf reporter robust z-score: -1.5; fewer than 50 cells in well: enough cells in well; call: active
Ccdc68 → Tnf reporter robust z-score: 0.11; fewer than 50 cells in well: enough cells in well; call: inactive
